Non-standard residues stand in square brackets, D forms with d. Residues, ends and D or L forms follow the SMILES beside them.
System: N87 cells
Assay: In vitro toxicity assay using human gastric cells (resazurin)
Assay type: cell-based
Settings: IC50 on N87 divided by MIC on H. pylori (ATCC 43504)
Procedure: [26] Human gastric cells N87 (ATCC CRL-5822) were cultured in RPMI-1640 medium supplemented with 10% fetal calf serum (FCS), 1% L-glutamine and 1% antibiotics (all from Invitrogen, Carlsbad, CA, USA) and were routinely seeded onto 25 cm^2 flasks maintained in a 5% CO2 incubator at 37 °C. For the toxicity assay, cells grown on 25 cm^2 flasks were detached using trypsin–EDTA solution (from Thermofisher), counted using Mallasez counting chamber and seeded into 96-well cell culture plates (Greiner Bio-one) at approximately 10^4 cells per well. The cells were left to grow for 48–72 h at 37 °C in a 5% CO2 incubator until they reached confluence. Plates were then aspirated and increasing concentrations of peptides were added to the cells for 48 h at 37 °C in a 5% CO2 incubator, volume of water corresponding to the volume of peptides being used as negative control. At the end of the incubation, wells were aspirated, and cell viability was evaluated using resazurin-based in vitro toxicity assay kit (Sigma-Aldrich) following manufacturer’s instructions. […] After 4 h incubation at 37 °C, fluorescence intensity was measured using microplate reader (Synergy Mx, Biotek) with an excitation wavelength of 530 nm and an emission wavelength of 590 nm. The fluorescence values were normalized by the controls and expressed as percent viability.

Row | Structure (SMILES) | TI (IC50/MIC)
1 | CC[C@H](C)[C@H](NC(=O)CNC(=O)[C@H](CO)NC(=O)[C@H](CC(C)C)NC(=O)[C@@H](N)Cc1ccccc1)C(=O)N[C@H](C(=O)NCC(=O)N[C@@H](CCSC)C(=O)N[C@@H](CC(C)C)C(=O)N[C@H](C)C(=O)N[C@@H](CCCCN)C(=O)N[C@@H](CC(C)C)C(=O)N[C@@H](Cc1ccccc1)C(N)=O)C(C)C [NST1, H-Phe^1-Leu^2-Ser^3-Gly^4-Ile^5-Val^6-Gly^7-Met^8-Leu^9-D-Ala^10-Lys^11-Leu^12-Phe^13-NH2] (H-FLSGIVGML[dA]KLF-NH2) | 60.27
2 | CC[C@H](C)[C@H](NC(=O)[C@@H](C)NC(=O)[C@H](CO)NC(=O)[C@H](CC(C)C)NC(=O)[C@@H](N)Cc1ccccc1)C(=O)N[C@H](C(=O)NCC(=O)N[C@@H](CCSC)C(=O)N[C@@H](CC(C)C)C(=O)NCC(=O)N[C@@H](CCCCN)C(=O)N[C@@H](CC(C)C)C(=O)N[C@@H](Cc1ccccc1)C(N)=O)C(C)C [NST2, H-Phe^1-Leu^2-Ser^3-D-Ala^4-Ile^5-Val^6-Gly^7-Met^8-Leu^9-Gly^10-Lys^11-Leu^12-Phe^13-NH2] (H-FLS[dA]IVGMLGKLF-NH2) | 99.76
